The results in this text go back to the supplement of paper PMC4604168 (melanoma cell lines).

The other results are listed elsewhere or left out. Single values are uncertain, as repeats are few or missing.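 Cells were imaged in 1,536-well plates, and nuclei stained with an antibody against cleaved PARP were counted against all DNA-stained nuclei to give the apoptosis fraction. Screening doses were chosen to leave most cells alive, and resting and induced cleaved-PARP levels differ strongly between cell lines.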

This assay relates to A2058. In words: cleaved PARP positive nuclei fraction relative to DMSO control; melanoma cells; higher = more apoptosis. Conditions: library dose: low library concentration; 72 h.
For the compound `N#Cc1c(O)c2c(-c3ccc(-c4ccccc4O)cc3)csc2[nH]c1=O` + COc1cc2ncnc(Nc3ccc(Oc4ccccc4)cc3)c2cc1OC [SrcI1] (first compound 2 µM, partner dose 2 µM), the “cleaved PARP positive nuclei fraction” value amounted to 39.2%. As for `CN(NC(=O)CC(=O)NN(C)C(=S)c1ccccc1)C(=S)c1ccccc1` + CC(C)CCN1c2nc(Nc3cc(F)c(O)c(F)c3)ncc2N(C)C(=O)C1C [BID1870] (first compound 0.006 µM, partner dose 0.2 µM), the figure is 174%; as for `CCc1ccc(CCOc2ccc(CC3SC(=O)NC3=O)cc2)nc1` (stereo not given) [pioglitazone] + N#Cc1c(O)c2c(-c3ccc(-c4ccccc4O)cc3)csc2[nH]c1=O [A769662] (first compound 2 µM, partner dose 2 µM), 120%. Next, `Oc1nc(-c2ccc(C(F)(F)F)cc2)nc2c1CSCC2` + CCCCCCCCCCCC1=C(O)C(=O)C=C(O)C1=O [Embelin] (first compound 2 µM, partner dose 1.2 µM): 110%; `CCN(CC)CCCCNc1ncc2cc(-c3cc(OC)cc(OC)c3)c(NC(=O)NC(C)(C)C)nc2n1` + Cn1cc(/C=C2\C(=O)Nc3cccnc32)c2ccccc21 [GW441756] (first compound 0.1 µM, partner dose 0.4 µM): 55.9%. As for `CCc1ccc(CCOc2ccc(CC3SC(=O)NC3=O)cc2)nc1` (stereo not given) [pioglitazone] + Cn1cc(/C=C2\C(=O)Nc3cccnc32)c2ccccc21 [GW441756] (first compound 2 µM, partner dose 0.4 µM), the figure is 115%; as for `COc1ccc(COc2ccc(Cc3cnc(N)nc3N)cc2OC)cc1` + COc1cc2ncnc(Nc3ccc(Oc4ccccc4)cc3)c2cc1OC [SrcI1] (first compound 1 µM, partner dose 2 µM), 34.4%; as for `O=S(=O)(c1ccccc1)N(CC(F)(F)F)c1ccc(C(O)(C(F)(F)F)C(F)(F)F)cc1` + COc1cc2ncnc(Nc3ccc(Oc4ccccc4)cc3)c2cc1OC [SrcI1] (first compound 1.4 µM, partner dose 2 µM), 57.9%.

Consider `COc1ccc2c(c1)CCC1C2CCC2(C)C(NCCCCCCN3C(=O)C=CC3=O)CCC12` (stereo not given) + Cn1cc(/C=C2\C(=O)Nc3cccnc32)c2ccccc21 [GW441756] (first compound 0.4 µM, partner dose 0.4 µM), for which the “cleaved PARP positive nuclei fraction” value is 124%.

Take `CN(NC(=O)CC(=O)NN(C)C(=S)c1ccccc1)C(=S)c1ccccc1` + Cc1cc([N+](=O)[O-])ccc1NS(=O)(=O)c1cc(Cl)ccc1Cl [FH535] (first compound 0.006 µM, partner dose 1 µM): the “cleaved PARP positive nuclei fraction” value was found to be 349%.

As to `N#Cc1c(O)c2c(-c3ccc(-c4ccccc4O)cc3)csc2[nH]c1=O` + c1cc(-c2cnn3cc(-c4ccc(OCCN5CCCCC5)cc4)cnc23)ccn1 [Dorsomorphin] (first compound 2 µM, partner dose 0.4 µM), the “cleaved PARP positive nuclei fraction” value was found to be 114%. As for `CCc1ccc(CCOc2ccc(CC3SC(=O)NC3=O)cc2)nc1` (stereo not given) [pioglitazone] + COc1ccc(COc2ccc(Cc3cnc(N)nc3N)cc2OC)cc1 [GW2580] (first compound 2 µM, partner dose 1 µM), the figure is 46.2%; as for `COc1cc2c(Oc3ccc4[nH]c(C)cc4c3F)ncnc2cc1OCCCN1CCCC1` [cediranib] + CCc1ccc(CCOc2ccc(CC3SC(=O)NC3=O)cc2)nc1 [pioglitazone] (first compound 0.4 µM, partner dose 2 µM), 36.2%; as for `COc1ccc(-c2ccc3c(N4CCOCC4)nc(N4C[C@@H](C)O[C@@H](C)C4)nc3n2)cc1CO` + COc1cc2ncnc(Nc3ccc(Oc4ccccc4)cc3)c2cc1OC [SrcI1] (first compound 0.02 µM, partner dose 2 µM), 42%. As for `O=C(O)c1ccc(-c2c[nH]c3ncc(-c4ccccc4)cc23)cc1C1CCCC1` + O=S(=O)(c1ccccc1)N(CC(F)(F)F)c1ccc(C(O)(C(F)(F)F)C(F)(F)F)cc1 [T0901317] (first compound 0.16 µM, partner dose 1.4 µM), the figure is 107%; as for `COc1ccc(-c2ccc3c(N4CCOCC4)nc(N4C[C@@H](C)O[C@@H](C)C4)nc3n2)cc1CO` + CCN(CC)CCCCNc1ncc2cc(-c3cc(OC)cc(OC)c3)c(NC(=O)NC(C)(C)C)nc2n1 [PD173074] (first compound 0.02 µM, partner dose 0.1 µM), 73.5%. Next, `Oc1cc(-c2nc(-c3ccccc3)[nH]c2-c2ccncc2)ccc1Cl` + O=C1NC(=O)/C(=C/c2ccc(-c3ccc(F)cc3O)o2)S1 [AS252424] (first compound 0.2 µM, partner dose 1 µM): 51.5%; `CCc1ccc(CCOc2ccc(CC3SC(=O)NC3=O)cc2)nc1` (stereo not given) [pioglitazone] + O=C(Nc1ccccc1)c1cc([N+](=O)[O-])ccc1Cl [GW9662] (first compound 2 µM, partner dose 2 µM): 77.5%; `COc1ccc2c(c1)CCC1C2CCC2(C)C(NCCCCCCN3C(=O)C=CC3=O)CCC12` (stereo not given) + O=C(O)C(=O)Nc1sc2c(c1C(=O)O)CCNC2 [TCS401] (first compound 0.4 µM, partner dose 1.66667 µM): 29.2%. With `CN(C)S(=O)(=O)c1ccc2c(c1)/C(=C/c1cc3c([nH]1)CCCC3)C(=O)N2` + COc1cc(N2CCC(N3CCN(C)CC3)CC2)ccc1Nc1ncc(Cl)c(Nc2ccccc2S(=O)(=O)C(C)C)n1 [NVP-TAE684] (first compound 0.4 µM, partner dose 0.08 µM), the “cleaved PARP positive nuclei fraction” value amounted to 133%. Next, `CN(C)S(=O)(=O)c1ccc2c(c1)/C(=C/c1cc3c([nH]1)CCCC3)C(=O)N2` + N#Cc1c(O)c2c(-c3ccc(-c4ccccc4O)cc3)csc2[nH]c1=O [A769662] (first compound 0.4 µM, partner dose 2 µM): 127%.

Take `COc1ccc2c(c1)CCC1C2CCC2(C)C(NCCCCCCN3C(=O)C=CC3=O)CCC12` (stereo not given) + CC(C)CCN1c2nc(Nc3cc(F)c(O)c(F)c3)ncc2N(C)C(=O)C1C [BID1870] (first compound 0.4 µM, partner dose 0.2 µM): the “cleaved PARP positive nuclei fraction” value stood at 34.2%.

As to `CCc1ccc(CCOc2ccc(CC3SC(=O)NC3=O)cc2)nc1` (stereo not given) [pioglitazone] + Oc1cc(-c2nc(-c3ccccc3)[nH]c2-c2ccncc2)ccc1Cl [L779450] (first compound 2 µM, partner dose 0.2 µM), the “cleaved PARP positive nuclei fraction” value was determined as 85.5%.

In the case of `CCc1ccc(CCOc2ccc(CC3SC(=O)NC3=O)cc2)nc1` (stereo not given) [pioglitazone] + CC(C)CCN1c2nc(Nc3cc(F)c(O)c(F)c3)ncc2N(C)C(=O)C1C [BID1870] (first compound 2 µM, partner dose 0.2 µM), the “cleaved PARP positive nuclei fraction” value stood at 133%. As for `CN(NC(=O)CC(=O)NN(C)C(=S)c1ccccc1)C(=S)c1ccccc1` + O=c1cc(-c2cccc3c2Sc2ccccc2S3)oc(N2CCOCC2)c1 [KU55933] (first compound 0.006 µM, partner dose 1 µM), the figure is 202%.

Regarding `O=C(O)c1ccc(-c2c[nH]c3ncc(-c4ccccc4)cc23)cc1C1CCCC1` + Oc1nc(-c2ccc(C(F)(F)F)cc2)nc2c1CSCC2 [XAV939] (first compound 0.16 µM, partner dose 2 µM), the “cleaved PARP positive nuclei fraction” value came out at 71%. Regarding `COc1ccc(COc2ccc(Cc3cnc(N)nc3N)cc2OC)cc1` + COc1cc(N2CCC(N3CCN(C)CC3)CC2)ccc1Nc1ncc(Cl)c(Nc2ccccc2S(=O)(=O)C(C)C)n1 [NVP-TAE684] (first compound 1 µM, partner dose 0.08 µM), the “cleaved PARP positive nuclei fraction” value was 131%. Next, `COc1ccc2c(c1)CCC1C2CCC2(C)C(NCCCCCCN3C(=O)C=CC3=O)CCC12` (stereo not given) + c1cc(-c2cnn3cc(-c4ccc(OCCN5CCCCC5)cc4)cnc23)ccn1 [Dorsomorphin] (first compound 0.4 µM, partner dose 0.4 µM): 24.9%; `NCC(=O)Nc1ccc(-n2nc(C(F)(F)F)cc2-c2ccc3c(ccc4ccccc43)c2)cc1` + COc1ccc(COc2ccc(Cc3cnc(N)nc3N)cc2OC)cc1 [GW2580] (first compound 1 µM, partner dose 1 µM): 134%; `COc1cc2ncnc(Nc3ccc(Oc4ccccc4)cc3)c2cc1OC` + COc1cc(N2CCC(N3CCN(C)CC3)CC2)ccc1Nc1ncc(Cl)c(Nc2ccccc2S(=O)(=O)C(C)C)n1 [NVP-TAE684] (first compound 2 µM, partner dose 0.08 µM): 174%.
